Results as given in the supplement of paper PMC6078165.
The reference is the same well before dosing, and untreated signal decays as well.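 Labels refer to human fibroblasts, largely primary: uterine (C12385, HUF), lung (H6013), bone (Hs27A), adrenal (HADF), skin (WS1), plus mammary HMF and breast cancer-associated Hs343T. Cancer lines are basal-like or mesenchymal-like triple-negative breast cancer. The paper counts as hits responses shifting over 3x the replicate standard deviation. The tissue of the other fibroblasts is not given here.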

Tested on: Hs578T
Assay: relative JC-1 red fluorescence (viability) vs pre-drug, coculture with fibroblast (fraction); higher = more viable cancer cells
Procedure: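 JC-1 labelled TNBC cells cocultured 1:1 (1,500 cells each) with CellTrace Violet stained primary or stromal fibroblasts in 384-well plates in FluoroBrite medium, treated with one of 42 anticancer drugs at 0.1, 1, 10 or 100 uM. JC-1 red fluorescence (mitochondrial integrity in cancer cells only) was read by plate reader every 8 h for 72 h. Values are normalised to each well's pre-drug value. The stock of one drug was tenfold lower, so its dose labels may be too high.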

CO[C@H]1C[C@@H]2CC[C@@H](C)[C@@](O)(O2)C(=O)C(=O)N2CCCC[C@H]2C(=O)O[C@H]([C@H](C)C[C@@H]2CC[C@@H](OCCO)[C@H](OC)C2)CC(=O)[C@H](C)/C=C(\C)[C@@H](O)[C@@H](OC)C(=O)[C@H](C)C[C@H](C)/C=C/C=C/C=C/1C [Everolimus]
relative JC-1 red fluorescence
Details | 8 h | 16 h | 24 h | 32 h | 40 h | 48 h | 56 h | 64 h | 72 h
10 µM | 0.853 | 0.9 | 0.966 | 0.9295 | 0.858 | 0.8073 | 0.7884 | 0.7414 | 0.728
100 µM | 0.948 | 0.933 | 0.856 | 0.871 | 0.785 | 0.821 | 0.724 | 0.755 | 0.746

relative JC-1 red fluorescence
Details | 8 h | 16 h | 24 h | 32 h | 40 h | 48 h | 56 h | 64 h | 72 h
10 µM, coculture fibroblast: C12385 | 0.848 | 0.853 | 0.825 | 0.81965 | 0.7801 | 0.7451 | 0.715 | 0.685 | 0.6754
10 µM, coculture fibroblast: H6013 | 0.928 | 0.976 | 0.957 | 0.9396 | 0.89 | 0.874 | 0.85 | 0.843 | 0.806
10 µM, coculture fibroblast: H6019 | 0.801 | 0.783 | 0.801 | 0.746 | 0.74 | 0.743 | 0.735 | 0.729 | 0.716
10 µM, coculture fibroblast: H6076 | 0.9694 | 0.968 | 0.979 | 0.984 | 0.965 | 0.971 | 0.945 | 0.942 | 0.9377
10 µM, coculture fibroblast: H6231 | 0.809 | 0.857 | 0.852 | 0.972 | 0.922 | 0.911 | 0.8617 | 0.8421 | 0.823
10 µM, coculture fibroblast: HADF | 0.935 | 0.965 | 0.9356 | 0.9068 | 0.872 | 0.842 | 0.809 | 0.7886 | 0.7594
10 µM, coculture fibroblast: HCFa | 0.934 | 0.927 | 0.906 | 0.868 | 0.808 | 0.791 | 0.769 | 0.746 | 0.72
10 µM, coculture fibroblast: HCPF | 0.934 | 0.905 | 0.9225 | 0.903 | 0.858 | 0.847 | 0.823 | 0.787 | 0.756
10 µM, coculture fibroblast: HHSteC | 0.96 | 0.865 | 0.894 | 0.874 | 0.9605 | 0.9535 | 0.9422 | 0.9315 | 0.901
10 µM, coculture fibroblast: HMF | 0.9541 | 0.9552 | 0.9479 | 0.948 | 0.8865 | 0.8697 | 0.842 | 0.819 | 0.802
10 µM, coculture fibroblast: HPFa | 0.919 | 0.936 | 0.90599 | 0.866 | 0.82 | 0.79 | 0.756 | 0.736 | 0.702
10 µM, coculture fibroblast: HUF | 0.869 | 0.826 | 0.8518 | 0.7772 | 0.732 | 0.698 | 0.667 | 0.663 | 0.653
10 µM, coculture fibroblast: Hs27A | 0.9395 | 0.9714 | 0.928 | 0.849 | 0.96 | 0.966 | 0.953 | 0.959 | 0.921
10 µM, coculture fibroblast: Hs343T | 0.9357 | 0.938 | 0.953 | 0.9515 | 0.887 | 0.87 | 0.82 | 0.797 | 0.777
10 µM, coculture fibroblast: WS1 | 0.859 | 0.851 | 0.8331 | 0.78663 | 0.739 | 0.729 | 0.7 | 0.689 | 0.678
100 µM, coculture fibroblast: C12385 | 0.831 | 0.826 | 0.737 | 0.551 | 0.431 | 0.347 | 0.301 | 0.283 | 0.287
100 µM, coculture fibroblast: H6013 | 0.838 | 0.925 | 0.91 | 0.73 | 0.597 | 0.5263 | 0.48 | 0.492 | 0.498
100 µM, coculture fibroblast: H6019 | 0.8509 | 0.794 | 0.658 | 0.497 | 0.404 | 0.337 | 0.327 | 0.351 | 0.364
100 µM, coculture fibroblast: H6076 | 0.959 | 0.966 | 0.876 | 0.919 | 0.867 | 0.828 | 0.8817 | 0.827 | 0.877
100 µM, coculture fibroblast: H6231 | 0.888 | 0.811 | 0.813 | 0.876 | 0.767 | 0.728 | 0.709 | 0.764 | 0.81
100 µM, coculture fibroblast: HADF | 0.9966 | 0.882 | 0.829 | 0.877 | 0.729 | 0.648 | 0.585 | 0.61 | 0.603
100 µM, coculture fibroblast: HCFa | 0.883 | 0.877 | 0.778 | 0.846 | 0.65 | 0.566 | 0.516 | 0.556 | 0.546
100 µM, coculture fibroblast: HCPF | 0.797 | 0.787 | 0.75 | 0.678 | 0.612 | 0.586 | 0.584 | 0.559 | 0.553
100 µM, coculture fibroblast: HHSteC | 0.895 | 0.896 | 0.725 | 0.501 | 0.375 | 0.35 | 0.368 | 0.375 | 0.357
100 µM, coculture fibroblast: HMF | 0.7995 | 0.598 | 0.584 | 0.571 | 0.572 | 0.579 | 0.581 | 0.576 | 0.573
100 µM, coculture fibroblast: HPFa | 0.833 | 0.911 | 0.75 | 0.749 | 0.652 | 0.643 | 0.687 | 0.731 | 0.714
100 µM, coculture fibroblast: HUF | 0.914 | 0.867 | 0.743 | 0.529 | 0.411 | 0.37 | 0.36 | 0.37 | 0.368
100 µM, coculture fibroblast: Hs27A | 0.775 | 0.835 | 0.894 | 0.764 | 0.775 | 0.679 | 0.61 | 0.58 | 0.558
100 µM, coculture fibroblast: Hs343T | 0.901 | 0.861 | 0.717 | 0.74 | 0.767 | 0.786 | 0.759 | 0.732 | 0.73
100 µM, coculture fibroblast: WS1 | 0.83 | 0.808 | 0.524 | 0.3893 | 0.305 | 0.262 | 0.2387 | 0.2524 | 0.2646
